Assay results published in patent publication US20040242452A1, “Perfume composition” (priority 2001, published 2004).
At least one structure is not confirmed: it was looked up by name or label, or the drawing left a doubt.

Key:
[1] = disclosed in Japanese Patent Application Laid-Open (kokai) No. 11-196295; cited from earlier work
healthy female panelists = experiment: CNV test (contingent negative variation) with inhaled scent samples; type: in vivo, human; settings: five healthy female adult panelists
Source text: The psycho-sedative effect was investigated by measuring negative changes in electric potential, so-called contingent negative variation (CNV). CNV is known to be a slow cerebral potential variation which relates to psychological processes such as alertness, expectation, and anticipation and to changes in the level of consciousness.
In order to screen out a compound having a psycho-sedative or psycho-stimulative effect, a light signal which indicates start of movement is emitted two seconds after stimulation with a warning sound, and a panelist is required to react (i.e., push a button) simultaneously with the recognition of the light. During repetition of a series of such processes, an aromatic product sample is arranged about 10 cm under the nose of the panelist so that its scent can be acknowledged with breathing. An electrode for the measurement of CNV is set on the forehead of the panelist so as to record electric potential between the forehead and an earlobe. It has already been reported that the CNV amplitude increases when caffeine having an arousal effect is perorally administered to humans, whereas the amplitude decreases when nitrazepam having a sedative effect is allowed to be […].
In this test, the psycho-sedative effect was evaluated by use of the percentage as an index. […]

Structure (SMILES) | mental stimulative effect [1] | synergistic psycho-stimulative effect by measured CNV values (FIG. 4) (healthy female panelists; 0.05% ethanol solution of each component, solo or combined) | psycho-stimulative effect by measured CNV values (FIG. 3) (healthy female panelists; 1% ethanol solution, CNV area relative to blank (100%))
COc1ccc(C=O)cc1 [anisaldehyde] | acknowledged to have a mental stimulative effect | – | –
C=C(C)[C@@H]1CC=C(CO)CC1 [perilla alcohol, dihydrocuminyl alcohol] | – | only a slight psycho-stimulative effect | acknowledged to have a psycho-stimulative effect
